The campaign covered roughly 340,000 compounds. About 4,500 (1.3%) were called active. The inconclusive results got no clear call from the source; some entries with a clear call stand among them for comparison. Calls follow the shape of the dose curve; as a rule, active = well fitted inhibition curve with a large enough effect; inconclusive = small, poorly fitted or top-dose-only effect, or another doubt; inactive = no such curve, though single readings can be large or run the other way. A potency beside an inconclusive call is a rough fit, not a confirmed value.
What follows are molecules tested against DNA polymerase beta (Homo sapiens) (UniProt P06746) (assay: qHTS Assay for Inhibitors of DNA Polymerase Beta). Conditions: Pol beta primer extension/strand displacement, fluorescence kinetic; activity change, negative = inhibition: at 114 µM (top of the series).
In short: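 Values derive from four-parameter Hill fits of normalized kinetic data: reads at 0 and 10 min following addition of 50 nM substrate to 10 nM Pol beta preincubated 15 min with compound.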
% is scaled to controls: 0 for no effect and ±100 for the full control effect; potency is read from the fitted curve at half-maximal effect.

Potency, active:
C/C(=N\Nc1cccc(C(=O)O)c1)c1ccc(Cl)s1 31.6 µM

Potency, inconclusive:
COc1ccc(C(=O)Nc2ccc(S(=O)(=O)Nc3onc(C)c3C)cc2)cc1 17.8 µM [inhibitor, partial curve, poor fit]
COc1ccc(CNC(=O)C2Cc3ccccc3CN2C(=O)c2ccco2)cc1 (stereo not given) 25.1 µM [inhibitor, partial curve, poor fit]
COc1ccccc1-c1cc(C(=O)Nc2cccnc2Cl)no1 100 µM [inhibitor, single point]
CN1CCC(N(C)CC(=O)Nc2ccccc2N2CCOCC2)CC1 44.7 µM [inhibitor, partial curve, poor fit]
Cc1ccc(-c2nn3c(C)nnc3c3ccccc23)cc1S(=O)(=O)NCC(C)O (stereo not given) 100 µM [inhibitor, single point]
CCC1=C/C(=C/c2sc3ccccc3[n+]2CC)CC(C)(C)C1 17.8 µM [inhibitor, single point]
COc1ccc2c(=O)c3c(=O)n(Cc4ccco4)c(-c4ccco4)nc3oc2c1 14.1 µM [inhibitor, full curve]
CCOc1ccc(/C=C2\SC(=S)N(CC(=O)Nc3ccccn3)C2=O)cc1 0.158 µM [inhibitor, full curve, poor fit]
CCc1ccc(C2=C/C(=C/c3cccnc3)C(=O)O2)cc1 22.4 µM [inhibitor, full curve, poor fit]
COc1cccc(C2c3[nH]c4ccccc4c3C[C@H]3C(=O)N(c4ccccc4C(=O)N4CCC[C@H]4C(=O)O)C(=O)N23)c1 (stereo not given in full) 79.4 µM [inhibitor, single point]

Activity change, negative = inhibition, inconclusive:
Cc1ccc(NC(=O)COc2cccc(/C=C3\SC(=S)N(CCC(=O)O)C3=O)c2)cc1Cl -103% [inhibitor]

Activity change, negative = inhibition, inactive:
COc1ccc(NC(=O)/C(Cl)=C(/Cl)S(=O)(=O)Cc2ccc(C)cc2)cn1 -0.863%
COc1ccc2c(c1)C(=O)C(=O)N2 -14.2%
Cc1cc(C)cc(NC(=O)Cc2noc3ccccc23)c1 2.61%
Cc1cc(N(C)C)ccc1[N+](=O)[O-] 15.3%
CCOc1ccccc1NC(=O)C(=O)Nc1ccc2nc3n(c(=O)c2c1)CCCCC3 1.17%
COc1ccc(Nc2nc(C)cc(=O)[nH]2)cc1 -21.9%
CCc1c(C)c2cc3c(c(C)c2oc1=O)OCN(CCc1ccccc1F)C3 1.32%
O=C(CNC(=O)c1ccccc1Cl)N/N=C/c1ccc([N+](=O)[O-])s1 0.843%

Arranged by molecular weight (smallest number first): some entries from above
Activity change, negative = inhibition, inactive:
Cc1cc(N(C)C)ccc1[N+](=O)[O-] 15.3%
COc1ccc(Nc2nc(C)cc(=O)[nH]2)cc1 -21.9%
O=C(CNC(=O)c1ccccc1Cl)N/N=C/c1ccc([N+](=O)[O-])s1 0.843%
COc1ccc(NC(=O)/C(Cl)=C(/Cl)S(=O)(=O)Cc2ccc(C)cc2)cn1 -0.863%

From PubChem BioAssay AID485314 (National Center for Advancing Translational Sciences (NCATS), 2010)
